Results are given in words; binding and its absence hold for the method and conditions named. In cells and extracts the contact can be indirect. Some entries that bind do so weakly or less than the wild type.

Assay [1] deals with T1, LRR Binding FLII Interacting Protein 1 (LRRFIP1), endogenous (human (endogenous in K562 and M-PBMCs)) (UniProt Q32MZ4).
T1 sequence: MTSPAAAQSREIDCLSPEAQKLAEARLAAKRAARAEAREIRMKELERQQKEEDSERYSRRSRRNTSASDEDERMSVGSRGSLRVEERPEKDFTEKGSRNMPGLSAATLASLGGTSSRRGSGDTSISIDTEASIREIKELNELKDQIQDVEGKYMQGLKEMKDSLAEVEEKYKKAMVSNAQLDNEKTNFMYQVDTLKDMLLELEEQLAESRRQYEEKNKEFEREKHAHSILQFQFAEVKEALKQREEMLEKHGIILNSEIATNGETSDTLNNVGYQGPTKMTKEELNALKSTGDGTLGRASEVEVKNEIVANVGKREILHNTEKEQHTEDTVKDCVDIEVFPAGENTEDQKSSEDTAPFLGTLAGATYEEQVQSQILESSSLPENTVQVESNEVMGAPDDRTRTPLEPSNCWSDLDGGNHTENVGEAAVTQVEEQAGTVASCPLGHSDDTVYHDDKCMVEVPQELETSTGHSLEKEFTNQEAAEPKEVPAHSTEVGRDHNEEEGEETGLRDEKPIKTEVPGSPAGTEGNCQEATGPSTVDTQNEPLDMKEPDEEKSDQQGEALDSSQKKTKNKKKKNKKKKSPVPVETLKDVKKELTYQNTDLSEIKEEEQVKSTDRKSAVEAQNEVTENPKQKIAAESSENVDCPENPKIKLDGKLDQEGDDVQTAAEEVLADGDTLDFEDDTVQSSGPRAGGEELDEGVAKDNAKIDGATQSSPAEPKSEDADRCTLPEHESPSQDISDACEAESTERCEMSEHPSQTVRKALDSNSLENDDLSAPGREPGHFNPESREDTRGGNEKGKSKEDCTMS
The assay is described as follows: co-IP; endogenous proteins immunoprecipitated from K562 cells after erythroid differentiation.

Assay [2] deals with T2, NLR family pyrin domain containing 1 (NLRP1), endogenous (human (endogenous in K562 and M-PBMCs)) (UniProt Q9C000).
T2 sequence: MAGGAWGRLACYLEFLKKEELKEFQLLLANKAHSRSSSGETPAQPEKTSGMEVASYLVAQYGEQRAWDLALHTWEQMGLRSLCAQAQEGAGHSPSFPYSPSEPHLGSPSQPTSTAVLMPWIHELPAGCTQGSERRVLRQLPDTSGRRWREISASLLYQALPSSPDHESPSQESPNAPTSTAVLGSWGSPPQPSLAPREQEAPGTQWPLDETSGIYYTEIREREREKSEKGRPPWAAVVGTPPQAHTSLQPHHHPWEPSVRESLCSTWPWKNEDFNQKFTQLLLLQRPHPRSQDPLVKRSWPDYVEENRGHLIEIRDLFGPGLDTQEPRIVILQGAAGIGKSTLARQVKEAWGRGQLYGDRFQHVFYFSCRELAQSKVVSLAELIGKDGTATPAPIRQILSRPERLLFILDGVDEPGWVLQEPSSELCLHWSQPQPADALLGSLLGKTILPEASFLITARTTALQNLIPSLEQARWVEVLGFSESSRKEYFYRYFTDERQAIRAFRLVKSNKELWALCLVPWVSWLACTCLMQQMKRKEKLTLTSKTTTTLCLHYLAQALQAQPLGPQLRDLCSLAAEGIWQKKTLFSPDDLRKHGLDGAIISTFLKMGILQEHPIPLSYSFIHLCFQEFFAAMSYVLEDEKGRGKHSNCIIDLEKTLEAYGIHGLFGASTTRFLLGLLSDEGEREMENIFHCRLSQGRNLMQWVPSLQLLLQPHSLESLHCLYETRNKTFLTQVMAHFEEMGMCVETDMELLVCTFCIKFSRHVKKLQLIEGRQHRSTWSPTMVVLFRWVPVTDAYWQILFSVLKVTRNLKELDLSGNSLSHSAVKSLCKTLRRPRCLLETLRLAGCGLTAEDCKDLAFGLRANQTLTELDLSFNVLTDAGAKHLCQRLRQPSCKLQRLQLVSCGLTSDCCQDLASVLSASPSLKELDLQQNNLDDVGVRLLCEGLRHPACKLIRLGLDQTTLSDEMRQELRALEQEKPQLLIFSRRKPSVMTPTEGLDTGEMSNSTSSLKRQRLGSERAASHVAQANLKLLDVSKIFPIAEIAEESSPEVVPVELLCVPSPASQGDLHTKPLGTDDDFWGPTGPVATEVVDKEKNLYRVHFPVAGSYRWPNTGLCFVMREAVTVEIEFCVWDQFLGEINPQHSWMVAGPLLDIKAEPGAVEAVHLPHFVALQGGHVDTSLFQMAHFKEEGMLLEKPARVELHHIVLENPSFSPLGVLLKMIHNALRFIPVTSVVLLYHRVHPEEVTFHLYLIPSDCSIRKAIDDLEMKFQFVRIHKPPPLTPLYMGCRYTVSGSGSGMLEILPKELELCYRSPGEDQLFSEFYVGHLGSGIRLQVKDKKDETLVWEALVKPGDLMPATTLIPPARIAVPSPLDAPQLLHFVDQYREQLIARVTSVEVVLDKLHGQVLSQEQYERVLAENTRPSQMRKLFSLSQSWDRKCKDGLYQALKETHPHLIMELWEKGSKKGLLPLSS
The assay is described as follows: proximity ligation; Duolink PLA on fixed, saponin-permeabilized K562 cells after erythroid differentiation; endogenous proteins; confocal microscopy.

Assay [3] deals with T2, NLR family pyrin domain containing 1 (NLRP1), endogenous (human (endogenous in K562 and M-PBMCs)). The assay can be described thus: co-IP; endogenous proteins in M-PBMCs (mobilized human peripheral blood mononuclear cells).
Assay [4] has the same target. The assay is described as follows: co-IP; endogenous proteins immunoprecipitated from K562 cells after erythroid differentiation.

B1: NLR family pyrin domain containing 1 (NLRP1), endogenous (protein, UniProt Q9C000 1-1473)
chain: MAGGAWGRLACYLEFLKKEELKEFQLLLANKAHSRSSSGETPAQPEKTSGMEVASYLVAQYGEQRAWDLALHTWEQMGLRSLCAQAQEGAGHSPSFPYSPSEPHLGSPSQPTSTAVLMPWIHELPAGCTQGSERRVLRQLPDTSGRRWREISASLLYQALPSSPDHESPSQESPNAPTSTAVLGSWGSPPQPSLAPREQEAPGTQWPLDETSGIYYTEIREREREKSEKGRPPWAAVVGTPPQAHTSLQPHHHPWEPSVRESLCSTWPWKNEDFNQKFTQLLLLQRPHPRSQDPLVKRSWPDYVEENRGHLIEIRDLFGPGLDTQEPRIVILQGAAGIGKSTLARQVKEAWGRGQLYGDRFQHVFYFSCRELAQSKVVSLAELIGKDGTATPAPIRQILSRPERLLFILDGVDEPGWVLQEPSSELCLHWSQPQPADALLGSLLGKTILPEASFLITARTTALQNLIPSLEQARWVEVLGFSESSRKEYFYRYFTDERQAIRAFRLVKSNKELWALCLVPWVSWLACTCLMQQMKRKEKLTLTSKTTTTLCLHYLAQALQAQPLGPQLRDLCSLAAEGIWQKKTLFSPDDLRKHGLDGAIISTFLKMGILQEHPIPLSYSFIHLCFQEFFAAMSYVLEDEKGRGKHSNCIIDLEKTLEAYGIHGLFGASTTRFLLGLLSDEGEREMENIFHCRLSQGRNLMQWVPSLQLLLQPHSLESLHCLYETRNKTFLTQVMAHFEEMGMCVETDMELLVCTFCIKFSRHVKKLQLIEGRQHRSTWSPTMVVLFRWVPVTDAYWQILFSVLKVTRNLKELDLSGNSLSHSAVKSLCKTLRRPRCLLETLRLAGCGLTAEDCKDLAFGLRANQTLTELDLSFNVLTDAGAKHLCQRLRQPSCKLQRLQLVSCGLTSDCCQDLASVLSASPSLKELDLQQNNLDDVGVRLLCEGLRHPACKLIRLGLDQTTLSDEMRQELRALEQEKPQLLIFSRRKPSVMTPTEGLDTGEMSNSTSSLKRQRLGSERAASHVAQANLKLLDVSKIFPIAEIAEESSPEVVPVELLCVPSPASQGDLHTKPLGTDDDFWGPTGPVATEVVDKEKNLYRVHFPVAGSYRWPNTGLCFVMREAVTVEIEFCVWDQFLGEINPQHSWMVAGPLLDIKAEPGAVEAVHLPHFVALQGGHVDTSLFQMAHFKEEGMLLEKPARVELHHIVLENPSFSPLGVLLKMIHNALRFIPVTSVVLLYHRVHPEEVTFHLYLIPSDCSIRKAIDDLEMKFQFVRIHKPPPLTPLYMGCRYTVSGSGSGMLEILPKELELCYRSPGEDQLFSEFYVGHLGSGIRLQVKDKKDETLVWEALVKPGDLMPATTLIPPARIAVPSPLDAPQLLHFVDQYREQLIARVTSVEVVLDKLHGQVLSQEQYERVLAENTRPSQMRKLFSLSQSWDRKCKDGLYQALKETHPHLIMELWEKGSKKGLLPLSS
Turning to B1, the binding result in assay [1] is given as “binds”.

B2: LRR Binding FLII Interacting Protein 1 (LRRFIP1), endogenous (protein, UniProt Q32MZ4 1-808)
chain: MTSPAAAQSREIDCLSPEAQKLAEARLAAKRAARAEAREIRMKELERQQKEEDSERYSRRSRRNTSASDEDERMSVGSRGSLRVEERPEKDFTEKGSRNMPGLSAATLASLGGTSSRRGSGDTSISIDTEASIREIKELNELKDQIQDVEGKYMQGLKEMKDSLAEVEEKYKKAMVSNAQLDNEKTNFMYQVDTLKDMLLELEEQLAESRRQYEEKNKEFEREKHAHSILQFQFAEVKEALKQREEMLEKHGIILNSEIATNGETSDTLNNVGYQGPTKMTKEELNALKSTGDGTLGRASEVEVKNEIVANVGKREILHNTEKEQHTEDTVKDCVDIEVFPAGENTEDQKSSEDTAPFLGTLAGATYEEQVQSQILESSSLPENTVQVESNEVMGAPDDRTRTPLEPSNCWSDLDGGNHTENVGEAAVTQVEEQAGTVASCPLGHSDDTVYHDDKCMVEVPQELETSTGHSLEKEFTNQEAAEPKEVPAHSTEVGRDHNEEEGEETGLRDEKPIKTEVPGSPAGTEGNCQEATGPSTVDTQNEPLDMKEPDEEKSDQQGEALDSSQKKTKNKKKKNKKKKSPVPVETLKDVKKELTYQNTDLSEIKEEEQVKSTDRKSAVEAQNEVTENPKQKIAAESSENVDCPENPKIKLDGKLDQEGDDVQTAAEEVLADGDTLDFEDDTVQSSGPRAGGEELDEGVAKDNAKIDGATQSSPAEPKSEDADRCTLPEHESPSQDISDACEAESTERCEMSEHPSQTVRKALDSNSLENDDLSAPGREPGHFNPESREDTRGGNEKGKSKEDCTMS
Consider B2, for which the binding result in assay [2], in assay [3] and in assay [4] was “binds” each time.

These data come from article PMC10565642.
